Test results published in PMC4420602.
No constants are given. Whether binding was seen depends on the method and setting. Binding seen in cells or lysates may run through a third protein. Here binding means that the protein was enriched with, or labelled near, the bait; the list need not be complete.

T1: DJ1 (rat (endogenous in Sprague-Dawley rat liver)) (UniProt O88767)
T1 sequence: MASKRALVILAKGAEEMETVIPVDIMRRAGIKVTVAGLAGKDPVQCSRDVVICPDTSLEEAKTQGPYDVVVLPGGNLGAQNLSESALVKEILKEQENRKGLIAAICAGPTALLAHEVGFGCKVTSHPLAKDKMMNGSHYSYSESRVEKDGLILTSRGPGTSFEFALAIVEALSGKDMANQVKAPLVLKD

B1: carbonic anhydrase 3 (protein, UniProt P14141 1-260)
chain: MAKEWGYASHNGPEHWHELYPIAKGDNQSPIELHTKDIRHDPSLQPWSVSYDPGSAKTILNNGKTCRVVFDDTFDRSMLRGGPLSGPYRLRQFHLHWGSSDDHGSEHTVDGVKYAAELHLVHWNPKYNTFGEALKQPDGIAVVGIFLKIGREKGEFQILLDALDKIKTKGKEAPFNHFDPSCLFPACRDYWTYHGSFTTPPCEECIVWLLLKEPMTVSSDQMAKLRSLFASAENEPPVPLVGNWRPPQPIKGRVVRASFK
B2: betaine-homocysteine S-methyl transferase (protein, UniProt O09171 1-407)
chain: MAPIAGKKAKRGILERLNAGEVVIGDGGFVFALEKRGYVKAGPWTPEAAVEHPEAVRQLHREFLRAGSNVMQTFTFYASEDKLENRGNYVAEKISGQKVNEAACDIARQVADEGDALVAGGVSQTPSYLSCKSETEVKKIFHQQLEVFMKKNVDFLIAEYFEHVEEAVWAVEALKTSGKPIAATMCIGPEGDLHGVSPGECAVRLVKAGAAIVGVNCHFDPSTSLQTIKLMKEGLEAARLKAYLMSHALAYHTPDCGKQGFIDLPEFPFGLEPRVATRWDIQKYAREAYNLGVRYIGGCCGFEPYHIRAIAEELAPERGFLPPASEKHGSWGSGLDMHTKPWIRARARKEYWQNLRIASGRPYNPSMSKPDAWGVTKGAAELMQQKEATTEQQLRALFEKQKFKSAQ
B3: carbamoyl-phosphate synthase (protein, UniProt P07756 39-1500)
chain: LSVKAQTAHIVLEDGTKMKGYSFGHPSSVAGEVVFNTGLGGYSEALTDPAYKGQILTMANPIIGNGGAPDTTARDELGLNKYMESDGIKVAGLLVLNYSHDYNHWLATKSLGQWLQEEKVPAIYGVDTRMLTKIIRDKGTMLGKIEFEGQSVDFVDPNKQNLIAEVSTKDVKVFGKGNPTKVVAVDCGIKNNVIRLLVKRGAEVHLVPWNHDFTQMDYDGLLIAGGPGNPALAQPLIQNVKKILESDRKEPLFGISTGNIITGLAAGAKSYKMSMANRGQNQPVLNITNRQAFITAQNHGYALDNTLPAGWKPLFVNVNDQTNEGIMHESKPFFAVQFHPEVSPGPTDTEYLFDSFFSLIKKGKGTTITSVLPKPALVASRVEVSKVLILGSGGLSIGQAGEFDYSGSQAVKAMKEENVKTVLMNPNIASVQTNEVGLKQADAVYFLPITPQFVTEVIKAERPDGLILGMGGQTALNCGVELFKRGVLKEYGVKVLGTSVESIMATEDRQLFSDKLNEINEKIAPSFAVESMEDALKAADTIGYPVMIRSAYALGGLGSGICPNKETLMDLGTKAFAMTNQILVERSVTGWKEIEYEVVRDADDNCVTVCNMENVDAMGVHTGDSVVVAPAQTLSNAEFQMLRRTSINVVRHLGIVGECNIQFALHPTSMEYCIIEVNARLSRSSALASKATGYPLAFIAAKIALGIPLPEIKNVVSGKTSACFEPSLDYMVTKIPRWDLDRFHGTSSRIGSSMKSVGEVMAIGRTFEESFQKALRMCHPSVDGFTPRLPMNKEWPANLDLRKELSEPSSTRIYAIAKALENNMSLDEIVKLTSIDKWFLYKMRDILNMDKTLKGLNSESVTEETLRQAKEIGFSDKQISKCLGLTEAQTRELRLKKNIHPWVKQIDTLAAEYPSVTNYLYVTYNGQEHDIKFDEHGIMVLGCGPYHIGSSVEFDWCAVSSIRTLRQLGKKTVVVNCNPETVSTDFDECDKLYFEELSLERILDIYHQEACNGCIISVGGQIPNNLAVPLYKNGVKIMGTSPLQIDRAEDRSIFSAVLDELKVAQAPWKAVNTLNEALEFANSVGYPCLLRPSYVLSGSAMNVVFSEDEMKRFLEEATRVSQEHPVVLTKFIEGAREVEMDAVGKEGRVISHAISEHVEDAGVHSGDATLMLPTQTISQGAIEKVKDATRKIAKAFAISGPFNVQFLVKGNDVLVIECNLRASRSFPFVSKTLGVDFIDVATKVMIGESVDEKHLPTLEQPIIPSDYVAIKAPMFSWPRLRDADPILRCEMASTGEVACFGEGIHTAFLKAMLSTGFKIPQKGILIGIQQSFRPRFLGVAEQLHNEGFKLFATEATSDWLNANNVPATPVAWPSQEGQNPSLSSIRKLIRDGSIDLVINLPNNNTKFVHDNYVIRRTAVDSGIALLTNFQVTKLFAEAVQKARTVDSKSLFHYRQYSAGKAA

Target: T1, DJ1 (rat (endogenous in Sprague-Dawley rat liver))
Experiment: affinity purification with mass spectrometry; co-IP with anti-DJ1 antibody and protein A/G PLUS agarose from rat liver lysates (pooled sample of six rats per group; male and female, control and STZ-induced diabetic), 4°C, beads washed three times with RIPA buffer; 10% SDS-PAGE, silver staining, excised bands identified by peptide mass fingerprinting (MALDI-TOF, MASCOT); control rabbit and rat IgGs as negative control

Row | binding | Molecule
1 | binds | glutathione S-transferase
2 | binds | stress 70 protein
3 | binds | B1
4 | binds | B2
5 | binds | B3
